Assay results taken from paper PMC7816512.
Results are given in words; binding and its absence hold for the method and conditions named. In cells and extracts the contact can be indirect. Some entries that bind do so weakly or less than the wild type. Where a sequence is shown, tags or fusion partners need not be part of it.

Target: T1, Rbm10-TAP (S. pombe) (UniProt P87143)
T1 sequence: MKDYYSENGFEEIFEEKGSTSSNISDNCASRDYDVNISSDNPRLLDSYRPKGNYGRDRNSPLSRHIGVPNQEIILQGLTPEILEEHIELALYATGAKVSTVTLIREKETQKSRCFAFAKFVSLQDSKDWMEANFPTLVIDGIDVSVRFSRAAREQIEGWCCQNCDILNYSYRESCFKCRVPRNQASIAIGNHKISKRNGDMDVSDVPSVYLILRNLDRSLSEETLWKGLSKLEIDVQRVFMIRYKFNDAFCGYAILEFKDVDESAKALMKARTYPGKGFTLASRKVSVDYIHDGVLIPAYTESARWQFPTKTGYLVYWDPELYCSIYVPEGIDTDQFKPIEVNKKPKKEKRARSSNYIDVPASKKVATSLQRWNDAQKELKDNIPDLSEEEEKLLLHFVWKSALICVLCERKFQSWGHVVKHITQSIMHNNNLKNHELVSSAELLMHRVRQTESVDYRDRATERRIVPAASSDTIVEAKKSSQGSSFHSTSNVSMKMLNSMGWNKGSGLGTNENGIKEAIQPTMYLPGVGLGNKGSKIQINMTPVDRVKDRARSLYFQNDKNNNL
Test: co-IP; lysates of S. pombe cells expressing Alp13-GFP and Rbm10-TAP from their own promoters; IgG sepharose, 4 °C, 2 h; Western blot with anti-GFP; cells with Alp13-GFP alone as control

B1: Alp13-GFP (protein, UniProt O13953 1-337)
chain: MAVSYKVNERVLCFHGPLLYEAKIVDTEMKGDVTTYLIHYKGWKNSWDEWVEQDRILQWTEENLKTQKELKNAAISTRQKPTSKKSASSTSKHDSTGVKTSGKRSRESSTVTVDGDSHELPSRIKTQKSESPIPQQVKRDGTTDAKNEETTKPENNEKDDFEEEPPLPKHKISVPDVLKLWLVDDWENITKNQQLIAIPRNPTVRAAIAAFRESKISHLNNEIDVDVFEQAMAGLVIYFNKCLGNMLLYRFERQQYLEIRQQYPDTEMCDLYGVEHLIRLFVSLPELIDRTNMDSQSIECLLNYIEEFLKYLVLHKDEYFIKEYQNAPPNYRSLVGV
Q: How did the binding turn out when B1 was run?
A: binds
